Data: PMC8430998
No constants are given. Whether binding was seen depends on the method and setting. In cells and extracts the contact can be indirect. Some entries that bind do so weakly or less than the wild type. Sequences can lack the tags named with a protein.

Protein sequences, listed by entry. Tags and fused reporters are not part of them. Lines headed by an entry give the natural chain unless they say otherwise; changes in a name come on top. Chains listed by the source or under a name are the forms on record and can include a tag or linker.
AR-V7 (missing the ligand binding domain) (P10275-3, form named): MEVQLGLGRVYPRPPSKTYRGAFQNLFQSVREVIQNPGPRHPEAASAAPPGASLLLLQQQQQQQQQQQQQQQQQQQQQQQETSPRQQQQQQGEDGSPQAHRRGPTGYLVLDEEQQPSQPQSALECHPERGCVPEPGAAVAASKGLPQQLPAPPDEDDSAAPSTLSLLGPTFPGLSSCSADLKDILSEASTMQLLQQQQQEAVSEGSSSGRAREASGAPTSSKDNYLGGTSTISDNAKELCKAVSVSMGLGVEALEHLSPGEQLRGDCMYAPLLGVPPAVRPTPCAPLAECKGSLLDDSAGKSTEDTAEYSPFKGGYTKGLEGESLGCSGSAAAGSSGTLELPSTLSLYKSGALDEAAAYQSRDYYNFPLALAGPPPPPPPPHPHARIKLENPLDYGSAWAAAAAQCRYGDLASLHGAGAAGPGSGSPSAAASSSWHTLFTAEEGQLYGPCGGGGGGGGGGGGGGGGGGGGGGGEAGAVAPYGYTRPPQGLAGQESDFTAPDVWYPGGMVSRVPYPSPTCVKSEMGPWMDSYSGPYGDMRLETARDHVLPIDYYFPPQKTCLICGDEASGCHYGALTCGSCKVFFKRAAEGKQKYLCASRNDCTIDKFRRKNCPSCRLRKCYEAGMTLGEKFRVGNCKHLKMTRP

Molecular target: T1, CSHQ-NRDP1-FLAG (UniProt Q9H4P4)
T1 sequence: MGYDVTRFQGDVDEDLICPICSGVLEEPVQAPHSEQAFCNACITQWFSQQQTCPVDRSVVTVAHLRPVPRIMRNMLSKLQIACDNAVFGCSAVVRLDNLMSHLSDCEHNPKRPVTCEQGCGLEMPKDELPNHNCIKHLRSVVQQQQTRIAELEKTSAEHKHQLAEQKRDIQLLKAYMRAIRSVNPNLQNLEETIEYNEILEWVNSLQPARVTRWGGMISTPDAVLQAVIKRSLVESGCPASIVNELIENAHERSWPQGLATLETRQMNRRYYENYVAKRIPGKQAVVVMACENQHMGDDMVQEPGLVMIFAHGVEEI
Experiment: co-IP; cells (LNCaP by the text, PC-3 by the legend) co-transfected with AR constructs and FLAG-tagged NRDP1-CSHQ (3 μg per 100 mm dish, 72 h); FLAG immunoprecipitation, western blot for AR

AR-V7 (missing the ligand binding domain) (from UniProt P10275-3 1-644) (receptor)
binding: binds
